From PMC7862700
Only a part is listed here, and it is no random draw. For part of these data: At the low end of the ranking the order means little. This is one part of the list. For part of these data: The source does not settle which construct or isoform was used.

Amino acid sequences for entries named in this document (tags omitted). A change or cut given only in a name is not applied to a line headed by its entry.
UniProt Q00613: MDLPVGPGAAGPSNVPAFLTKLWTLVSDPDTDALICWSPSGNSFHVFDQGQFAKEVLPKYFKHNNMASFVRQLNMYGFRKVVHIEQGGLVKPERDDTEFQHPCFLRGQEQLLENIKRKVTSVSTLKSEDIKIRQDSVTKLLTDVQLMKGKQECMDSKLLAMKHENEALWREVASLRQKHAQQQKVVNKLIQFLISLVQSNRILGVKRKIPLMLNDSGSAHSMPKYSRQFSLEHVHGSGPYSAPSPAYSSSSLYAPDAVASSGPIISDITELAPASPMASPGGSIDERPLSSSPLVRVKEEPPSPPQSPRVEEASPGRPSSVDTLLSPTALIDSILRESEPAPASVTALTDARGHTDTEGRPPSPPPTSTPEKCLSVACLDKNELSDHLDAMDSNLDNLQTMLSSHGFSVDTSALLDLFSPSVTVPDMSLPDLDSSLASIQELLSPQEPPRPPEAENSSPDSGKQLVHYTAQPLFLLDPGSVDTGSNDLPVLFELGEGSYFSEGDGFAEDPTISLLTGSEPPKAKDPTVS

What was measured:
HSF1 = HSF1 (UniProt Q00613); test: DAPPL (digital affinity profiling via proximity ligation, sequencing); settings: 10 mM Tris-HCl pH 7.5, 50 mM NaCl, 1 mM DTT, 4% glycerol, room temperature, 30 min; GST-TFs on glutathione beads, 16-mer random dsDNA library, 0.1% …; high values mean tight binding; double strand, one strand shown; scale: fold enrichment (6-mer frequency, TF over GST control)
ELF2 = biological target: T1, ELF2 (UniProt Q15723); test: as above; settings: 10 mM Tris-HCl pH 7.5, 50 mM NaCl, 1 mM DTT, 4% glycerol, room temperature, 30 min; GST-TFs on glutathione beads, 16-mer random dsDNA library, 0.1% …; high values mean tight binding; double strand, one strand shown; scale: fold enrichment (6-mer frequency, TF over GST control)
T1 sequence: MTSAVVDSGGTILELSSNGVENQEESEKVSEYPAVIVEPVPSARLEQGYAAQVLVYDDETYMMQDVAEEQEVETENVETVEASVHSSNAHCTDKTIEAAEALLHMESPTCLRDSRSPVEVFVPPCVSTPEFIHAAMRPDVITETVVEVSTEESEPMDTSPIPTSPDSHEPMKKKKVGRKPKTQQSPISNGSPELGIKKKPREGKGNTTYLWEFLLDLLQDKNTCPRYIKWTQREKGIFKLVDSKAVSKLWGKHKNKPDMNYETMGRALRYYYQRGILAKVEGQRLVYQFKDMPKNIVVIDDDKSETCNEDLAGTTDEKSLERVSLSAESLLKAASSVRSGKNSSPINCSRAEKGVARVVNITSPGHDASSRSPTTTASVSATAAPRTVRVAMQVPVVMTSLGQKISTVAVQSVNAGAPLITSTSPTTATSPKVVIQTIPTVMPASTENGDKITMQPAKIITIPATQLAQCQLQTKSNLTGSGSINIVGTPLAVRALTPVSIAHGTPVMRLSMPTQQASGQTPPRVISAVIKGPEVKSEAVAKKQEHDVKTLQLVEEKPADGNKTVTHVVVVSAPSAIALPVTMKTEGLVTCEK

Sequence | binding signal (HSF1) | binding signal (ELF2)
GAACTG | 0.853 | 1.08
GGTTCC | 1.13 | 1.97
ACACCC | 0.898 | 1.11
TGGATC | 1.16 | 0.925
CACACA | 0.962 | 1.12
TGGCCA | 0.915 | 1.01
TTTGGG | 1.36 | 1.25
AGTATG | 0.902 | 1.02
TACAGA | 1.28 | 1.1
GGTTAC | 0.751 | 0.938
TCCAGC | 1.44 | 0.922
CATCAG | 0.792 | 0.918
CGATGC | 0.945 | 1.06
TTAGGA | 1.28 | 0.901
ACCTTT | 1.36 | 1.34
AAGCGG | 0.911 | 1.29
GTTTAG | 0.892 | 0.808
ACTCGT | 1.14 | 1.16
CCCCGT | 0.893 | 0.997
GATGCG | 0.895 | 1.17
CCGGGT | 0.568 | 1.57
CGGAAA | 0.951 | 2.97
GCCGAA | 1.14 | 0.937
TTTCAT | 1.13 | 1.13

Sequence | binding signal (HSF1) | binding signal (ELF2)
GTTATC | 1.03 | 1.1
TATAGC | 1.17 | 1.17
TATGTC | 0.893 | 1.08
GTCCGC | 0.709 | 1.07
CGGTCT | 0.862 | 1.13
ACCGGC | 0.919 | 1.11
CTGTAG | 0.944 | 0.905
CATAGT | 0.935 | 0.967
ATGTTG | 0.997 | 1.2
AACTGT | 0.841 | 0.947
ATTAGG | 1.57 | 1.06
TACTAT | 1.37 | 1.27
CCTCAG | 1.07 | 1.2
GCAGCA | 0.754 | 0.927
CAAAGC | 1.04 | 1.06
TGTGCA | 0.858 | 1.08
ACCCCT | 0.856 | 1.05
CGCTAA | 1.09 | 0.932
TAACGT | 0.967 | 0.96
AGTAGC | 0.84 | 1.08
GCGGAA | 0.56 | 2.09
CACCCC | 0.914 | 1.24
AGCGCT | 0.93 | 1.06
ATAAGC | 1.67 | 1.05

Sequence | binding signal (HSF1) | binding signal (ELF2)
TTACCT | 1.45 | 1.22
AAGGCA | 0.914 | 1.01
TCCGAA | 1.48 | 1.27
TCATCC | 1.38 | 1.37
AAGGTT | 1.27 | 1.02
TAAGCA | 1.29 | 0.951
GAATGG | 1.07 | 0.901
CGTCAT | 0.798 | 0.926
ACGAAT | 1.39 | 1.14
AACAGA | 0.993 | 0.963
TGTCCC | 0.984 | 1.23
CAGCCT | 0.97 | 0.943
TAGAAG | 2.77 | 1.11
GCTTGT | 0.965 | 1.12
ACTACA | 0.981 | 1.16
GTGCTG | 0.772 | 0.851
GCGGCT | 0.923 | 0.888
TCGTTG | 0.89 | 0.875
TCGCTG | 0.933 | 1.05
TGTCTG | 0.952 | 1.04
CCGGAC | 0.841 | 1.75
AGCTCA | 1.22 | 1.1
GGGTAT | 0.865 | 0.969
AAGCGC | 1.08 | 1.2

Reprinted from the entries so far (33 entries):
Sequence | binding signal (HSF1) | binding signal (ELF2)
CCTCAG | 1.07 | 1.2
GCAGCA | 0.754 | 0.927
CAAAGC | 1.04 | 1.06
TGTGCA | 0.858 | 1.08
ACCCCT | 0.856 | 1.05
CGCTAA | 1.09 | 0.932
TAACGT | 0.967 | 0.96
AGTAGC | 0.84 | 1.08
GCGGAA | 0.56 | 2.09
CACCCC | 0.914 | 1.24
AGCGCT | 0.93 | 1.06
ATAAGC | 1.67 | 1.05
TTACCT | 1.45 | 1.22
AAGGCA | 0.914 | 1.01
TCCGAA | 1.48 | 1.27
TCATCC | 1.38 | 1.37
AAGGTT | 1.27 | 1.02
TAAGCA | 1.29 | 0.951
GAATGG | 1.07 | 0.901
CGTCAT | 0.798 | 0.926
ACGAAT | 1.39 | 1.14
AACAGA | 0.993 | 0.963
TGTCCC | 0.984 | 1.23
CAGCCT | 0.97 | 0.943
TAGAAG | 2.77 | 1.11
GCTTGT | 0.965 | 1.12
ACTACA | 0.981 | 1.16
GTGCTG | 0.772 | 0.851
GCGGCT | 0.923 | 0.888
TCGTTG | 0.89 | 0.875
TCGCTG | 0.933 | 1.05
TGTCTG | 0.952 | 1.04
CCGGAC | 0.841 | 1.75

(listing goes on)

Sequence | binding signal (HSF1) | binding signal (ELF2)
CATATC | 0.914 | 1.39
TCAGAC | 0.809 | 0.878
GTAATT | 1.36 | 1.25
GACCGG | 0.543 | 1.29
CGACGC | 0.917 | 1.02
GACTAT | 0.958 | 0.916
GTGGTC | 0.559 | 0.812
TATTTT | 1.5 | 1.33
TCATGT | 0.929 | 1.04
CATGTT | 0.956 | 1.01
GCGAAT | 1.27 | 1.04
ACGCTT | 1.22 | 1.41
AGGCCC | 0.795 | 0.876
TAATGG | 1.46 | 1.25
ACACCT | 0.875 | 1.03
CGAACT | 1.48 | 1.11
ACAGTT | 0.713 | 0.847
AGTGTA | 0.801 | 1.03
ATCCTT | 1.98 | 1.65
GCACAA | 0.883 | 1.09
CTTTGA | 1.21 | 1.13
CGGCAT | 0.922 | 1.11
GCCTGT | 0.741 | 0.864
TAGGCA | 0.943 | 0.961

Sequence | binding signal (HSF1) | binding signal (ELF2)
GTCTCG | 1.55 | 1.2
AGTTGC | 0.764 | 1.01
GATATG | 0.853 | 1.12
CGTTTG | 0.814 | 1.02
CACAAA | 1.02 | 1.06
ATGGTG | 0.834 | 1.1
TCCGGG | 0.66 | 2.24
CTTGAG | 0.918 | 0.872
TATCGC | 1.22 | 1.11
ACTGTA | 0.905 | 0.994
AGGAAG | 0.64 | 2.03
CCATAG | 0.949 | 0.874
CCGCCG | 0.968 | 1.21
CAAGCC | 0.848 | 0.907
ATGCTA | 1.46 | 1.24
TTCGCA | 1.31 | 1.23
TTCTTG | 1.98 | 1.36
ATAAAG | 1.27 | 1.12
GCAATT | 0.969 | 1.16
TGTGGC | 0.848 | 0.992
AAACCT | 1.15 | 1.07
ACAAAA | 1.09 | 1.17
CTTACA | 1.31 | 1.27
TGATTG | 0.923 | 1
